Experimental data as given in US20060177442A1 (Bristol-Myers Squibb, published 2006).
No constants are given. Whether binding was seen depends on the method and setting. Some results given as binding are weak or reduced against the parent protein; the word gives no strength.

By UniProt entry, the sequences of proteins in these tests, tags left out. Residues count along the entry.
UniProt P28908, residues 19-595: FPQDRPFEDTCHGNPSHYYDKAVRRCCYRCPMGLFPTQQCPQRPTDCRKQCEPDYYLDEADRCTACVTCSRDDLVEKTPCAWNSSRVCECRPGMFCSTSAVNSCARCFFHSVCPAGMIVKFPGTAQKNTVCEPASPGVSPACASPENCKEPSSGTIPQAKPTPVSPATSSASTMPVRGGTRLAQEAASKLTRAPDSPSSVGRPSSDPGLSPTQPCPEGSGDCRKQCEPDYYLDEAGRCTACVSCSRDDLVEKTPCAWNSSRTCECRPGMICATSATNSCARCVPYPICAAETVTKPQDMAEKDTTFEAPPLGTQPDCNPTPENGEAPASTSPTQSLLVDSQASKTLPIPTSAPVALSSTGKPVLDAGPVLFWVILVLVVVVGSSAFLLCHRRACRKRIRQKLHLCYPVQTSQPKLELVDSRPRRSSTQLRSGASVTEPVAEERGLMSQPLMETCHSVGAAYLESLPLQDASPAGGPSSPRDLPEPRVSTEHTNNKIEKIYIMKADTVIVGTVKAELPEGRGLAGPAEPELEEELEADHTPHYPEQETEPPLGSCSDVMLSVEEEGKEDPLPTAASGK

Target: CD30 on Hodgkin-derived cell lines (L540, L428) (human) (UniProt P28908)
Experiment: fluorescence microscopy of L540 cells stained with 5F11 and FITC-labeled goat anti-human antibody, combined with a TUNEL assay

B1: fully human anti-CD30 monoclonal antibody 5F11 (antibody, V domains shown)
VH: QVQLQQWGAGLLKPSETLSLTCAVYGGSFSAYYWSWIRQPPGKGLEWIGDINHGGGTNYNPSLKSRVTISVDTSKNQFSLKLNSVTAADTAVYYCASLTAYWGQGSLVTVSS
VL: DIQMTQSPTSLSASVGDRVTITCRASQGISSWLTWYQQKPEKAPKSLIYAASSLQSGVPSRFSGSGSGTDFTLTISSLQPEDFATYYCQQYDSYPITFGQGTRLEIK
binding: binds
